Assay: PAMPA-BBB permeation assay

COc1cc2c(cc1OC)C(=O)C(CC1CCN(Cc3ccccc3)CC1)C2 (centres unmarked) [Donepezil, reference compound]
Prediction (PAMPA-BBB) (CNS+, CNS−) (class from Pe): CNS+ (‘CNS+’ (prediction of high BBB permeation); Pe (10^−6 cm s^−1) > 4.39)
Permeability (PAMPA-BBB) Pe(tested) (pH 7.4, 20 hours, room temperature): 6.55 ± 0.10 10^−6 cm s^−1
